The supplement of paper PMC9671908
Structures can show the parent of a compound that is named as a salt. This is one part of the list. Many values rest on one well or one pass, so single values are uncertain.

How the values were obtained:
MIA PaCa-2 parental = assay: parental cell viability relative to untreated parental control; higher = more surviving cells; details: treatment time: 9 days
MIA PaCa-2 persister = assay: persister cell viability relative to untreated persister control; higher = more surviving persister cells; details: treatment time: 9 days; cell state: persister (100 nM gemcitabine + 100 nM Torin1)

| SMILES | parental cell viability (MIA PaCa-2 parental) [%] | persister cell viability (MIA PaCa-2 persister) [%] |
| --- | --- | --- |
| CNCc1ccc(-c2[nH]c3cc(F)cc4c3c2CCNC4=O)cc1 [Rucaparib] (inhibitor concentration: 3µM) | 75.5 | 104 |
| c1cc(-c2cnn3cc(-c4ccc(OCCN5CCCCC5)cc4)cnc23)ccn1 [Dorsomorphin] (inhibitor concentration: 1µM) | 84.5 | 105 |
| COCCOc1ccc2c(c1)ncn2-c1ccc2cccc(N3CCC(N)CC3)c2n1 (inhibitor concentration: 300nM) | 99 | 190 |
| CC1(C)CCC(c2ccc(Cl)cc2)=C(CN2CCN(c3ccc(C(=O)NS(=O)(=O)c4ccc(N[C@H](CCN5CCOCC5)CSc5ccccc5)c(S(=O)(=O)C(F)(F)F)c4)cc3)CC2)C1 (inhibitor concentration: 3µM) | 102 | 5 |
| CCOC(=O)CCNc1cc(N2CCc3ccccc3CC2)nc(-c2ccccn2)n1 (inhibitor concentration: 1µM) | 10 | 79 |
| CS(=O)(=O)N1CCN(Cc2cc3nc(-c4cccc5[nH]ncc45)nc(N4CCOCC4)c3s2)CC1 [Pictilisib] (inhibitor concentration: 10µM) | 29 | 125 |
| CNc1nc(Nc2cn(C(C)(C)C#N)nc2C)ncc1C(F)(F)F (inhibitor concentration: 10µM) | 94 | 92.5 |
| CCN1CCN(C(c2ccc(C(F)(F)F)cc2)c2ccc3cccnc3c2O)CC1 (stereo not drawn) (inhibitor concentration: 10µM) | 98 | 95 |
| CNC(=O)c1cc(Oc2ccc(NC(=O)Nc3ccc(Cl)c(C(F)(F)F)c3)cc2)ccn1 [Sorafenib] (inhibitor concentration: 10µM) | 19 | 62 |
| Oc1c(F)cc(-c2cnccc2-c2ccc(N3CCOCC3)cc2)cc1F (inhibitor concentration: 30µM) | 106 | 180 |
| CC1(C)CCC(CN2CCN(c3ccc(C(=O)NS(=O)(=O)c4ccc(NCC5CCOCC5)c([N+](=O)[O-])c4)c(Oc4cnc5[nH]ccc5c4)c3)CC2)=C(c2ccc(Cl)cc2)C1 (inhibitor concentration: 3µM) | 104 | 98 |
| CN1C(=O)N[C@H](Cc2c[nH]c3c(Cl)cccc23)C1=O [Necrostatin-2] (inhibitor concentration: 30µM) | 99 | 98.5 |
| Nc1ccccc1NC(=O)c1ccc(CNC(=O)OCc2cccnc2)cc1 [Entinostat] (inhibitor concentration: 300nM) | 103 | 10 |
| Cc1c[nH]c2nccc(Oc3c(F)cc(Nc4cc(Cl)nc(N)n4)cc3F)c12 [Azaindole 1] (inhibitor concentration: 1µM) | 39 | 56 |
| Cc1cc(-c2ccccc2)cc(C(=O)NNS(=O)(=O)c2ccccc2)c1F (inhibitor concentration: 30µM) | 98.5 | 93 |
| Fc1ccc(CNc2ncnc3ccc(F)cc23)cc1 [Spautin-1] (inhibitor concentration: 30µM) | 90 | 51 |
| COc1cc(OC)c2cc(-c3ccncc3)cnc2c1 [DMPQ (hydrochloride)] (inhibitor concentration: 3µM) | 101 | 150 |
| Cn1cc(-c2ccc(F)c(C(F)(F)F)c2)nc1C1CCN(c2ncnc3[nH]ncc23)CC1 (inhibitor concentration: 1µM) | 105 | 200 |
| Cc1onc(C(=O)N2CCN(C(c3ccc(Cl)cc3)c3ccc(Cl)cc3)CC2)c1[N+](=O)[O-] (inhibitor concentration: 100nM) | 103 | 25 |
| C=CCn1c(=O)c2cnc(Nc3ccc(N4CCN(C)CC4)cc3)nc2n1-c1cccc(C(C)(C)O)n1 [Adavosertib] (inhibitor concentration: 100nM) | 103 | 20 |
| O[C@H]1CC[C@H](Nc2ncc3nc(Nc4c(F)cc(F)cc4F)n([C@H]4CCOC4)c3n2)CC1 [Tanzisertib] (inhibitor concentration: 10µM) | 106 | 110 |
| O=C(CNC(=O)c1ccc(-c2ccccc2)cc1)NC1CCCc2ccccc21 (stereo not drawn) [Compound 43 TAO Kinase Inhibitor] (inhibitor concentration: 3µM) | 110 | 78 |
| CC(C)N(C[C@H]1O[C@@H](n2cnc3c(N)ncnc32)[C@H](O)[C@@H]1O)[C@H]1C[C@@H](CCc2nc3cc(C(C)(C)C)ccc3[nH]2)C1 (inhibitor concentration: 30µM) | 99.5 | 102 |
| O=C(c1cc(Cc2n[nH]c(=O)c3ccccc23)ccc1F)N1CCN(C(=O)C2CC2)CC1 [Olaparib] (inhibitor concentration: 300µM) | 21 | 81 |

2 of the compounds above, tab-delimited:
SMILES	parental cell viability (MIA PaCa-2 parental) [%]	persister cell viability (MIA PaCa-2 persister) [%]
O=C(CNC(=O)c1ccc(-c2ccccc2)cc1)NC1CCCc2ccccc21 (stereo not drawn) [Compound 43 TAO Kinase Inhibitor] (inhibitor concentration: 3µM)	110	78
CC(C)N(C[C@H]1O[C@@H](n2cnc3c(N)ncnc32)[C@H](O)[C@@H]1O)[C@H]1C[C@@H](CCc2nc3cc(C(C)(C)C)ccc3[nH]2)C1 (inhibitor concentration: 30µM)	99.5	102
